Laboratory results: PMC5008018
These are yes or no findings as the source states them, for the method shown. In cells and extracts the contact can be indirect. Some results given as binding are weak or reduced against the parent protein; the word gives no strength. Tags and fused reporters may be left off the sequences shown.

Key:
[1] = target: HA-tagged human parkin, wild type, full length (human) (UniProt O60260); experiment: co-IP; HEK293 cells transfected with HA-parkin-WT or HA-parkin-2KR and FLAG-HERC5, all samples also with UBE1L and Myc-UbcH8; lysate immunoprecipitated with anti-HA, blotted with anti-HERC5 or anti-HA
[2] = target: HA-tagged parkin-K349R/K369R mutant (2KR) (human) (UniProt O60260); experiment: as above
[3] = target: HA-tagged human parkin, wild type, full length (human) (UniProt O60260); experiment: co-IP; HEK293 cells co-transfected with HA-parkin, FLAG-HERC5 (WT or C994A), FLAG-ISG15-WT, UBE1L and Myc-UbcH8; lysate in 1% Nonidet P-40 buffer (50 mM Tris pH 7.4, 150 mM NaCl, 10% glycerol); immunoprecipitated with anti-HA overnight at 4°C, blotted with anti-HERC5, anti-HA or anti-FLAG

Measured: binding

B1: FLAG-tagged wild-type HERC5 (enzyme, UniProt Q9UII4 1-1024)
chain: MERRSRRKSRRNGRSTAGKAAATQPAKSPGAQLWLFPSAAGLHRALLRRVEVTRQLCCSPGRLAVLERGGAGVQVHQLLAGSGGARTPKCIKLGKNMKIHSVDQGAEHMLILSSDGKPFEYDNYSMKHLRFESILQEKKIIQITCGDYHSLALSKGGELFAWGQNLHGQLGVGRKFPSTTTPQIVEHLAGVPLAQISAGEAHSMALSMSGNIYSWGKNECGQLGLGHTESKDDPSLIEGLDNQKVEFVACGGSHSALLTQDGLLFTFGAGKHGQLGHNSTQNELRPCLVAELVGYRVTQIACGRWHTLAYVSDLGKVFSFGSGKDGQLGNGGTRDQLMPLPVKVSSSEELKLESHTSEKELIMIAGGNQSILLWIKKENSYVNLKRTIPTLNEGTVKRWIADVETKRWQSTKREIQEIFSSPACLTGSFLRKRRTTEMMPVYLDLNKARNIFKELTQKDWITNMITTCLKDNLLKRLPFHSPPQEALEIFFLLPECPMMHISNNWESLVVPFAKVVCKMSDQSSLVLEEYWATLQESTFSKLVQMFKTAVICQLDYWDESAEENGNVQALLEMLKKLHRVNQVKCQLPESIFQVDELLHRLNFFVEVCRRYLWKMTVDASENVQCCVIFSHFPFIFNNLSKIKLLHTDTLLKIESKKHKAYLRSAAIEEERESEFALRPTFDLTVRRNHLIEDVLNQLSQFENEDLRKELWVSFSGEIGYDLGGVKKEFFYCLFAEMIQPEYGMFMYPEGASCMWFPVKPKFEKKRYFFFGVLCGLSLFNCNVANLPFPLALFKKLLDQMPSLEDLKELSPDLGKNLQTLLDDEGDNFEEVFYIHFNVHWDRNDTNLIPNGSSITVNQTNKRDYVSKYINYIFNDSVKAVYEEFRRGFYKMCDEDIIKLFHPEELKDVIVGNTDYDWKTFEKNARYEPGYNSSHPTIVMFWKAFHKLTLEEKKKFLVFLTGTDRLQMKDLNNMKITFCCPESWNERDPIRALTCFSVLFLPKYSTMETVEEALQEAINNNRGFG
binds: [1] | [2] | [3]
